The values below come from PubChem BioAssay AID662 (National Center for Advancing Translational Sciences (NCATS), 2007).

Molecules are shown by their SMILES. This is one part of the list. Shown are side measurements of this screen, not its main read-out; they come without a call. Most of these compounds were active or inconclusive in the main read-out, so they are no random draw. The note in brackets gives the kind of curve behind each potency; many fits are weak.

The nature of this experiment: Cell signaling CRE-BLA (Fsk stim). Conditions: CHO CRE-bla reporter (cAMP response element driving beta-lactamase), forskolin EC10, beta-lactamase ratio; measured here: 460 nm blue channel. The procedure, abridged:
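Modulation of forskolin-driven signalling is measured in CHO cells carrying a CRE-controlled beta-lactamase reporter. Cells are stimulated with EC10 NKH 477 in the presence of titrated compound for 3 h at 37 °C, then loaded with CCF4 for 2 h at room temperature.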
As usually defined, the AC50 is the concentration giving half of the maximal activity seen. Regarding `O=C(Nc1cccs1)Nc1ccccc1Cl`, the AC50 is 0.794 µM [falling, full curve].
Next, `O=C(COC(=O)c1ccccn1)Nc1ncc(C(F)(F)F)cc1Cl`: 0.00398 µM [falling, full curve, poor fit]; `O=C(c1ccccc1)c1nnc(-c2ccncc2)o1`: 0.00398 µM [rising, full curve, poor fit].
Next, `N=c1c2c(-c3ccccc3)c(-c3ccccc3)n(Cc3ccco3)c2ncn1Cc1ccco1`: 25.1 µM [falling, single point]; `CCn1c(=O)c(-c2ccccc2)c(O)c2ccccc21`: 10 µM [falling, single point]; `O=C(O)C1C2CCC(C2)C1C(=O)NCc1ccccn1` (stereo not drawn): 0.1 µM [falling, full curve].
Next, `Cc1ccccc1Cn1cnc2c(cnn2C(C)(C)C)c1=O`: 20 µM [rising, single point]; `COc1ccccc1-c1nnc2n1N=C(C(C)(C)C)CS2`: 25.1 µM [rising, single point]; `Cn1nnnc1SCC(=O)Nc1c(Cl)cccc1Cl`: 0.631 µM [falling, full curve].
With `Cc1ccc(S(=O)(=O)C2(C(=O)Nc3ccc(F)cc3)CC2)cc1`, the AC50 was 0.0631 µM [falling, full curve].
Next, `Cc1cc(C)n(Cc2ccc(C(=O)O)o2)n1`: 20 µM [falling, single point]; `CCOC(=O)C1=C(C)NC(C)=C(C(=O)OC)[C@H]1c1cccc(Cl)c1Cl`: 7.94 µM [rising, partial curve]; `O=C(NCc1ccco1)c1cc(-c2ccccn2)nc2ccccc12`: 12.6 µM [falling, single point].
Next, `CCC(c1nnnn1Cc1ccco1)N(CCc1ccccc1)Cc1cc2ccc(OC)cc2[nH]c1=O` (stereo not drawn): 10 µM [rising, single point].
Regarding `CCCCSc1nnc([C@H](CC(C)C)NC(=O)OC(C)(C)C)o1`, the concentration at half-maximal activity (AC50) was 25.1 µM [rising, single point].
The value for `CSc1nnc2n(-c3ccccc3)c(=O)c3c4c(sc3n12)CCC4` was 2.51 µM [rising, full curve].
The value for `Cc1cc(C)c(C#N)c(N2CCN(Cc3ccc4c(c3)OCO4)CC2)n1` was 10 µM [rising, partial curve].
Next, `Cc1cccc(N2CCN(C(=O)C3CCCN(S(=O)(=O)c4cccc5cccnc45)C3)CC2)c1C` (stereo not drawn): 5.01 µM [falling, single point]; `Fc1ccccc1CSc1nnc(-c2cnccn2)n1Cc1ccco1`: 3.16 µM [rising, partial curve]; `CCNc1nc(NC(C)C)nc(Oc2ccc(OCCOc3ccc(C)cc3)nn2)n1`: 0.316 µM [rising, partial curve].
As for `CN(Cc1ccco1)c1ncnc2ccc(-c3ccc4c(c3)OCO4)cc12`, the AC50 was 3.16 µM [rising, partial curve].
Take `CCCCNC(=O)c1c[nH]c2ccc(S(=O)(=O)Nc3ccc(OCC)cc3)cc2c1=O`: the half-maximal activity concentration (AC50) is 25.1 µM [falling, single point].
The value for `CCCc1cc(Nc2cccc(OCC)c2)n2ncnc2n1` was 10 µM [rising, partial curve]; that for `Cc1cc(N2CCN(C(c3ccccc3)c3ccc(Cl)cc3)CC2)n2ncnc2n1` (stereo not drawn) was 25.1 µM [falling, single point].
The value for `COc1cccc(-c2nc(CS(=O)CC(=O)NCCCOC(C)C)c(C)o2)c1` (stereo not drawn) was 0.00794 µM [falling, full curve, poor fit].
Consider `Cc1cccc2cc(CN(CCCO)C(=O)Nc3ccc(Cl)cc3)c(=O)[nH]c12`, for which the AC50 was 0.501 µM [falling, full curve, poor fit].
Next, `COc1ccc(-c2nc(CSCC(=O)N3CCC(C(N)=O)CC3)c(C)o2)cc1OC`: 15.8 µM [rising, single point]; `CCCNC(=O)c1cc(-c2ccc(OC)cc2)on1`: 0.0398 µM [falling, full curve, poor fit].
As for `N#Cc1c(N)oc(-c2ccc3c(c2)OCO3)c1-c1ccc2c(c1)OCO2`, the concentration at half-maximal activity (AC50) was 5.01 µM [rising, partial curve].
On to `CCN(CC)CCCN(Cc1cc2cc3c(cc2[nH]c1=O)OCCO3)C(=O)Nc1ccccc1`, for which the AC50 is 20 µM [rising, single point].
Next, `O=C(NCCc1ccccc1)C1CCCN(S(=O)(=O)c2cccc3nsnc23)C1` (stereo not drawn): 15.8 µM [rising, single point]; `FC(F)Oc1ccc(-c2csc(Cc3nnc4n3CCCCC4)n2)cc1`: 25.1 µM [rising, single point]; `C=CCn1c(=O)c2c(nc3n2CCS3)n(C)c1=O`: 10 µM [rising, partial curve].
The value for `CN1CCN(c2ncc3ncc(=O)n(CCc4ccccc4)c3n2)CC1` was 12.6 µM [rising, partial curve]; that for `COc1cc(NC(=O)c2cc(-n3cnnc3)ccc2Cl)cc(OC)c1` was 12.6 µM [rising, single point].
Next, `CCc1nc(SCC(=O)NCc2ccco2)c2c3c(sc2n1)CCCC3`: 3.16 µM [rising, single point]; `O=C(CSc1nc2c(cnn2-c2ccccc2)c(=O)[nH]1)c1ccc(Cl)cc1`: 0.126 µM [rising, full curve, poor fit]; `CCc1ccc(NC(=O)c2ccc3c(c2)C(=O)N(Cc2ccco2)C3=O)cc1`: 10 µM [falling, single point].
In the case of `COc1ccccc1NC(=O)CSc1nnc(-c2ccccn2)n1Cc1ccco1`, the AC50 is 10 µM [rising, partial curve].
In the case of `CCC/C=C(\CCC)C(NS(=O)(=O)c1ccccc1)c1ccc(C(F)(F)F)cc1` (stereo not drawn), the AC50 is 2.51 µM [rising, full curve].
The value for `COc1ccc(-c2nc3cnc(N4CCOCC4)nc3n(Cc3cccc(OC)c3)c2=O)cc1` was 5.01 µM [rising, partial curve]; that for `O=C(CCn1c(=O)c2sccc2n(Cc2cc(=O)n3ccccc3n2)c1=O)NCc1ccco1` was 0.0251 µM [falling, partial curve].
The value for `O=C(NCCOc1ccc(Cl)cc1)C1CC(=O)N(c2ccc(F)cc2)C1` (stereo not drawn) was 0.316 µM [falling, full curve].
Next, `Cc1cccc(N2CCN(C(=O)C3CCN(c4nnc(-n5cccc5)s4)CC3)CC2C)c1` (stereo not drawn): 6.31 µM [falling, partial curve]; `COc1ccccc1NC(=O)CC1Nc2ccccc2NC1=O` (stereo not drawn): 10 µM [rising, partial curve]; `CCOC(=O)NC(CC(=O)O)c1ccc(OCC)cc1` (stereo not drawn): 1.58 µM [rising, partial curve].
Turning to `CCOCCCNS(=O)(=O)c1ccc2c(c1)CCN2C(=O)CC`, the AC50 was 7.94 µM [rising, single point].
The value for `O=C(CN1CCOCC1)Nc1cccc(Br)c1` was 15.8 µM [falling, partial curve]; that for `Clc1ccccc1-c1ccc2ncnc(N3CCNCC3)c2c1` was 10 µM [rising, partial curve]; that for `CC1(C(=O)Nc2nccs2)Cc2ccccc2C(=O)O1` (stereo not drawn) was 12.6 µM [falling, partial curve].
Next, `Cc1nn(CC(=O)Nc2ccc(C(=O)N3CCCCC3)cc2)c(=O)c2ccccc12`: 5.01 µM [rising, single point].
The value for `Cc1nc2ccc(NC(=O)C3CCN(S(=O)(=O)c4cccs4)CC3)cc2s1` was 3.16 µM [falling, full curve]; that for `c1csc(Cc2nc3ccccc3[nH]2)c1` was 0.0501 µM [falling, full curve].
For `COc1ccc(O)c(-c2[nH]ncc2C(=O)c2ccccc2C)c1`, the AC50 was 5.01 µM [falling, partial curve].
Turning to `O=Nc1ccc(NO)cc1`, the AC50 was 25.1 µM [falling, partial curve, poor fit].
The value for `Cc1cc2ncn(C3CC(=O)N(Cc4ccccc4)C3=O)c2cc1C` (stereo not drawn) was 15.8 µM [rising, partial curve, poor fit]; that for `Cc1cc(C(=O)CSc2nnc(Cc3ccccc3)o2)c(C)n1Cc1ccc2c(c1)OCO2` was 31.6 µM [falling, single point].
Next, `c1csc(-c2nn3c(-c4ccncc4)nnc3s2)c1`: 10 µM [rising, single point].
Take `CCc1cc2c(CN3CCN(CCO)CC3)cc(=O)oc2cc1O`: the concentration at half-maximal activity (AC50) was 10 µM [rising, partial curve].
For `CN(C)c1ccc(C2N(C(=O)N3CCOCC3)CCN2S(=O)(=O)c2ccccc2)cc1` (stereo not drawn), the AC50 was 0.251 µM [rising, partial curve, poor fit].
Consider `Cc1sc2ncn3c(C)nnc3c2c1C`, for which the AC50 is 3.98 µM [falling, single point].
Next, `CCCCCC(=O)Nc1cccc(-c2nc3ncccc3o2)c1`: 15.8 µM [rising, single point].
The value for `O=C1CC(c2ccc(F)cc2)Cc2nc(N3CCc4ccccc43)ncc21` (stereo not drawn) was 15.8 µM [rising, single point]; that for `Cc1noc(C)c1-c1nccc(-n2ccnc2)n1` was 7.94 µM [rising, partial curve].
The value for `CCOC(=O)c1cc(C#N)c(SCc2ccc(C#N)cc2)nc1C` was 3.16 µM [rising, single point]; that for `Cc1ccc(C2C3=C(CC(C)(C)CC3=O)N(CCN3CCOCC3)C3=C2C(=O)CC(C)(C)C3)cc1` was 12.6 µM [rising, partial curve]; that for `COc1ccc(C)cc1S(=O)(=O)N(C)CC(=O)NCc1ccco1` was 12.6 µM [falling, single point].
Regarding `O=C(Nc1c(C(=O)N2CCOCC2)cnn1-c1ccccc1)c1ccccc1`, the AC50 was 0.00398 µM [falling, full curve, poor fit].
